Assay: AlphaScreen false positive test with biotinylated histag peptide
Conditions: biotinylated histag peptide generates AS signal

Row | Compound | interference with AS signal in false positive test
1 | CC(=O)N[C@H]1[C@H](O[C@H]2[C@H](O)[C@@H](NC(C)=O)[C@H](O[C@H]3[C@H](O)[C@@H](NC(C)=O)C(O)O[C@@H]3CO)O[C@@H]2CO)O[C@H](CO)[C@@H](O[C@@H]2O[C@H](CO)[C@@H](O[C@@H]3O[C@H](CO)[C@@H](O[C@@H]4O[C@H](CO)[C@@H](O)[C@H](O)[C@H]4NC(C)=O)[C@H](O)[C@H]3NC(C)=O)[C@H](O)[C@H]2NC(C)=O)[C@@H]1O (some centres unmarked) [chitin hexamer, chitohexose] | non-interfering
2 | heparin sodium salt | not-interfering
